# Data published in PubChem BioAssay AID304 (DTP/NCI, 2004).
# The list is a part of this screen's results and no random one: it covers a few groups of compounds. Other doses and runs of a compound may be missing. T/C: endpoint of the treated group in % of that of the vehicle group. For survival time, this PubChem deposit counts one and a half times the control or more as active, and values a quarter to a half above the control carry no call in these data; other NCI protocols may use other cut-offs. Some T/C values are marked as having no survivor count here; that says nothing about deaths at the dose. Schedule codes are those of the source, read here as Q, the interval in days (D) or hours (H), X, the number of doses. Some doses were run more than once; their values stand side by side, smallest first.
# System: Lymphosarcoma Mecca ip in C3AKF1 mice, survival T/C%
# Test: NCI In Vivo Anticancer Drug Screen. Data for tumor model Lymphosarcoma Mecca (intraperitoneal) in C3AKF1 (CHKRF1) mice
# Conditions: T/C endpoint: survival time, mean or median, schedule: Q01DX010 (ip), vehicle: saline, higher T/C = longer survival
# Experimental: The antitumor activity of compounds was measured in mice bearing transplantable tumors. Survival or tumor size were measured and the results are expressed as the measurement made in the treated group (T) divided by the measurement made in the vehicle treated control group (C). The tumor model used in this assay is Lymphosarcoma Mecca (intraperitoneal) in C3AKF1 (CHKRF1) mice
structure (smiles),measurement,setting,value
CN(CCCl)CCCl,T/C,dose: 0.06 mg/kg/injection,122 [survivor count not shown] and 270 % of control [survivor count not shown]
same,T/C,dose: 0.13 mg/kg/injection,"113 [survivor count not shown], 125 [survivor count not shown], 145 [survivor count not shown], 150 % of control [survivor count not shown]"
same,T/C,dose: 0.25 mg/kg/injection,"125 [survivor count not shown], 143 [survivor count not shown], 154 [survivor count not shown], 195 % of control [survivor count not shown]"
same,T/C,dose: 0.5 mg/kg/injection,"148 [survivor count not shown], 193 [survivor count not shown], 240 [survivor count not shown], 390 % of control [survivor count not shown]"
same,T/C,dose: 1.0 mg/kg/injection,86 [survivor count not shown] and 109 % of control [survivor count not shown]
